Measured values as given in PubChem BioAssay AID1688 (National Center for Advancing Translational Sciences (NCATS), 2009).
Screen size: about 220,000 compounds; about 2,400 (1.1%) were called active. Inconclusive means that the source gave no clear call. Such entries were picked first, then a sample of the others. Calls follow the shape of the dose curve; as a rule, active = well fitted inhibition curve with a large enough effect; inconclusive = small, poorly fitted or top-dose-only effect, or effect the other way; inactive = no such curve, though single readings can be large or run the other way. Potencies beside an inconclusive call are fits to weak or partial responses and may not hold up.

assay: qHTS Multiplex Assay to Identify Dual Action Probes in a Cell Model of Huntington: Aggregate Formation (GFP); conditions: PC12 HttQ103-GFP aggregates, Acumen cytometry, 40 h; activity change, negative = inhibition: at 46.1 µM (top of the series) unless noted; also: nearly all actives have a fitted effect of over 60% in size
Summary of the method: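 Quantitative HTS on tebufenozide-induced (100 nM) PC12 cells stably expressing polyQ103 Huntingtin exon 1–GFP. Reduction of bright GFP aggregates, detected by laser scanning cytometry after lysis, identified actives across the titration.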
% is scaled to controls: 0 for no effect and ±100 for the full control effect; potency is read from the fitted curve at half-maximal effect.

Row | SMILES | Potency | activity change, negative = inhibition
1 | COC(=O)c1cccc(N(C(=O)c2cnccn2)C(C(=O)NC2CCCCC2)c2cn(C)nc2C)c1 (centres undefined) | inconclusive: 14.1 µM [activator, single point] | 
2 | O=C(Nc1ccc2c(c1)CCC2)c1cccc(F)c1 | inconclusive: 17.8 µM [inhibitor, single point] | 
3 | O=C(CN1CCOCC1)N/N=C/C(Br)=C\c1ccccc1 | inconclusive: 25.1 µM [activator, partial curve] | 
4 | CCOc1cc(C2C(C#N)=C(N)SC(N)=C2C#N)ccc1OCCN1CCOCC1 | inconclusive: 15.8 µM [activator, single point] | 
5 | CC(C)[C@H](N)C(=O)OCC(CO)OCn1cnc2c(=O)[nH]c(N)nc21 (some centres undefined) | inactive | 
6 | CC(C)(C)n1ncc(Oc2ccccc2[N+](=O)[O-])c(Cl)c1=O | active: 12.6 µM | 
7 | Cc1nn(-c2ccccc2)c(N)c1Sc1ccccc1[N+](=O)[O-] | active: 3.55 µM | 
8 | O=C(NC(Cc1c[nH]c2ccccc12)C(=O)N/N=C/c1cccnc1)c1cccs1 (centres undefined) | inconclusive: 35.5 µM [activator, partial curve, poor fit] | 
9 | CCOC(=O)C1CCN(CC(=O)N(CC(C)C)c2c(N)n(CC(C)C)c(=O)[nH]c2=O)CC1 | inconclusive: 11.2 µM [activator, partial curve] | 
10 | CC/C(=N\n1nnnc1Nc1ccccc1)c1ccccc1 | inconclusive: 22.4 µM [inhibitor, single point] | 
11 | CCN1N=C(c2ccccc2)Cn2c1nc1ccccc12 | inconclusive: 11.2 µM [inhibitor, partial curve] | 
12 | CC(C)(C)NC(=O)NC(=O)COC(=O)Cc1ccc(Cl)cc1Cl | inconclusive: 0.891 µM [inhibitor, single point] | 
13 | CCn1cc(Cl)c(C(=O)Nc2cccc(C(F)(F)F)c2)n1 | inconclusive: 31.6 µM [inhibitor, single point] | 
14 | C=CCSc1nc2ccccc2c2nc(-c3ccccc3)nn12 | inconclusive: 25.1 µM [inhibitor, single point] | 
15 | O=C(Nc1nnc(-c2ccc(F)cc2)o1)c1cccc([N+](=O)[O-])c1 | active: 5.62 µM | 
16 | CC(C)C(NC(=O)c1ccco1)C(=O)OCc1cc([N+](=O)[O-])cc2c1OCOC2 (centres undefined) |  | inactive: -8.94% [at 9.22 µM]
17 | COC(=O)Cc1sc(-c2ccccn2)nc1-c1ccccc1 | inactive | 
18 | CCC(CC)C(=O)Nc1cccc(C(=O)Nc2ccc(S(=O)(=O)Nc3ccc(C)cc3)cc2)c1 | inconclusive: 35.5 µM [inhibitor, single point] | 
19 | O=C(CSc1ncn[nH]1)NN(c1ccccc1)c1ccccc1 | inactive | 
20 | COc1ccc(OC)c(-n2nnnc2SCC(=O)Nc2ccc(C(=O)N3CCCCC3)cc2)c1 | inactive | 
21 | CCOC(=O)Cn1c2ccccc2c2nc(C)sc21 | inconclusive: 5.62 µM [inhibitor, single point] | 
22 | Cc1cc(/C=N/Nc2nc(N3CCOCC3)nc(N3CCOCC3)n2)c(C)n1-c1ccccc1 | inconclusive: 6.31 µM [activator, single point] | 
23 | CC(C)NC(=O)c1cc(-c2ccc(Br)cc2)on1 | inconclusive: 2.24 µM [inhibitor, partial curve] | 

Row | SMILES | Potency | activity change, negative = inhibition
24 | COC(=O)c1oc2ccc(OC)cc2c1N | active: 2.82 µM | 
25 | O=C1c2cccc3cccc(c23)C(=O)N1CC1CCN(CC(O)COc2ccc3ccccc3c2)CC1 (centres undefined) | inconclusive: 17.8 µM [inhibitor, single point] | 
26 | COc1cccc2c1C(=O)c1c(O)c3c(c(O)c1C2=O)C[C@](O)(C(=O)CO)C[C@@H]3O[C@H]1C[C@H](N)[C@@H](O)[C@H](C)O1 | inactive | 
27 | COc1ccc(-c2nc(C#N)c(N3CCCCCC3)o2)cc1 | inconclusive: 3.98 µM [inhibitor, full curve, poor fit] | 
28 | CC(C)(C)OC(=O)N[C@@H](Cc1ccccc1)c1nnc(S(=O)(=O)Cc2ccccc2)o1 | inconclusive: 35.5 µM [inhibitor, single point] | 
29 | COc1ccc(OC)c(Nc2nc(-c3sc(NC(=O)CC(C)C)nc3C)cs2)c1 | inconclusive: 14.1 µM [inhibitor, single point] | 
30 | COc1cc(/C=C2\SC(=S)N(Nc3ccccc3)C2=O)ccc1O | inconclusive: 14.1 µM [inhibitor, single point] | 
31 | Cc1cc[n+](-c2ccccc2)c2ccccc12 | inconclusive: 1 µM [inhibitor, full curve, poor fit] | 
32 | Cc1ccc(C)c(N2CCN(C(=O)C(Cc3ccccc3)n3cccc3)CC2)c1 (centres undefined) | inconclusive: 35.5 µM [inhibitor, single point] | 
33 | CCOc1c(S(=O)(=O)N2CCCC2)ccc(Cl)c1Cl | inconclusive: 20 µM [inhibitor, single point] | 
34 | CN1CCN(c2ccc([N+](=O)[O-])cc2/C=N/NC(=O)c2cccc([N+](=O)[O-])c2)CC1 | inactive | 
35 | CCCn1c(C)cc(/C=C(\C#N)C(=O)OCC(=O)Nc2ccc(OC)c(Cl)c2)c1C | inconclusive: 35.5 µM [inhibitor, single point] | 
36 | O=S1(=O)C=C(Sc2nc3ccccc3s2)c2ccccc21 | active: 4.47 µM | 
37 | COc1ccc(S(=O)(=O)N2CCC(n3cnc4cc(C(F)(F)F)ccc43)CC2)cc1 | inconclusive: 39.8 µM [inhibitor, partial curve, poor fit] | 
38 | O=C(NCCc1cccs1)C1CC(c2c(Cl)cccc2Cl)=NO1 (centres undefined) | inconclusive: 15.8 µM [inhibitor, single point] | 
39 | CC1(C)Cc2ccccc2C(/C(=N\Nc2cccc(Cl)c2)C(N)=O)=N1 | inconclusive: 35.5 µM [inhibitor, single point] | 
40 | O=C1ON=C(c2ccccc2)/C1=C/c1ccc(OS(=O)(=O)c2ccccc2)cc1 | inconclusive: 1 µM [activator, single point] | 
41 | CN1CCN(CC(O)(c2ccc(Cl)cc2)c2ccc(Cl)cc2)CC1 | inconclusive: 35.5 µM [inhibitor, single point] | 
42 | COCc1cc(C)nc(SCC(=O)c2ccc(O)c(O)c2)c1C#N | inactive | 
43 | CN1CCN(C(=O)c2ccc(N3CCCC3=O)cc2)CC1 | inactive | 
44 | Cc1nc(N2CCN(c3ccccn3)CC2)c2c(C)c(C(=O)Nc3ccccc3F)sc2n1 | inconclusive: 2.82 µM [activator, full curve, poor fit] | 
45 | COc1ccc(NS(=O)(=O)c2cccc(NC(=O)c3ccc(S(=O)(=O)N4CCCCCC4)cc3)c2)cc1 | inconclusive: 11.2 µM [inhibitor, single point] | 
46 | COc1ccc(C(C)(C)C)cc1NC(=O)Nc1ccc2c(c1)OCO2 | active: 17.8 µM | 

Row | SMILES | Potency | activity change, negative = inhibition
47 | COC(=O)C1=C(C)Nc2nnnn2C1c1cccs1 (centres undefined) | inconclusive: 17.8 µM [inhibitor, single point] | 
48 | O=C(/C=C/c1ccccc1)NC(NC(=S)Nc1ccc(Cl)cc1Cl)C(Cl)(Cl)Cl (centres undefined) | inconclusive: 35.5 µM [inhibitor, single point] | 
49 | COCCNC(=S)NC(=O)c1ccc(C(C)(C)C)cc1 | inconclusive: 12.6 µM [inhibitor, single point] | 
50 | O=c1cc(C(F)(F)F)nc(-n2[nH]c3c(c2=O)CCCC3)[nH]1 | inconclusive: 17.8 µM [inhibitor, single point] | 
51 | Nc1nc(SCC(=O)N2CCCc3ccccc32)[nH]c(=O)c1-c1ccccc1 | inconclusive: 3.16 µM [activator, single point] | 
52 | CC(=O)c1cccc(NC(=O)Nc2ccc(C(=O)N3CCCC3)cc2)c1 | inconclusive: 3.98 µM [inhibitor, partial curve] | 
53 | O=C(CCN1CCN(c2ccccc2)CC1)N/N=C/c1ccccc1OC(F)F | inactive | 
54 | O=C(c1cc(-c2ccncc2)nc2ccc(Cl)cc12)N1CCN(C(=O)C2CCCO2)CC1 (centres undefined) | inactive | 
55 | COc1ccc(S(=O)(=O)NC(C)CCc2ccccc2)cc1 (centres undefined) | inactive | 
56 | CCOc1ccc(C2C(C(=O)OC)=C(C)N=C3SCCC(=O)N32)cc1OCC (centres undefined) | inconclusive: 5.62 µM [activator, single point] | 
57 | CCCCNc1c([N+](=O)[O-])cc(C(=O)O)cc1[N+](=O)[O-] | inactive | 
58 | O=C1NC(c2ccccc2)=C(c2nc3ccccc3s2)C(c2ccc(O)cc2)N1 (centres undefined) | inconclusive: 10 µM [inhibitor, single point] | 
59 | Cn1c(=O)c2c(nc(NCc3ccco3)n2C/C=C/c2ccccc2)n(C)c1=O | active: 10 µM | 
60 | Cc1ccccc1OCC(=O)OCC(=O)c1ccc(OC(=O)c2ccccc2)cc1 | inactive | 
61 | CCOC(=O)c1[nH]c(C)c(C(=O)NC2CCCC2)c1C | inactive | 
62 | COc1ccc(N2C(=O)C3CCCN3C2c2ccccc2Cl)cc1 (centres undefined) | inactive | 
63 | Cc1cc2cc(C)c3nnc(SCC(=O)N4CCCc5ccccc54)n3c2cc1C | inconclusive: 0.891 µM [inhibitor, single point] | 
64 | Cc1sc2nc(CN3CCN(c4ccc(O)cc4)CC3)[nH]c(=O)c2c1C |  | inactive: 4.42% [at 9.22 µM]
65 | COc1ccc(-c2noc(CSc3ccc(C)cc3)n2)cc1 | inconclusive: 35.5 µM [inhibitor, single point] | 
66 | O=C(c1ccccc1)c1ccc(OCCn2cnc3ccccc3c2=O)cc1 | inconclusive: 2.51 µM [activator, single point] | 
67 | CC(=O)c1cc(NC(=O)c2ccc(C)cc2)c(=O)oc1C | inconclusive: 35.5 µM [inhibitor, single point] | 
68 | CN(C)/C=C/c1c(C#N)c(=O)ncn1Cc1ccccc1 | inactive | 
69 | CC(C)c1ccc2oc(-c3cc(N)ccc3O)nc2c1 | inconclusive: 2.82 µM [activator, full curve] | 

Part of the list above in order of length of the SMILES, descending.
Row | SMILES | Potency | activity change, negative = inhibition
54 | O=C(c1cc(-c2ccncc2)nc2ccc(Cl)cc12)N1CCN(C(=O)C2CCCO2)CC1 (centres undefined) | inactive | 
48 | O=C(/C=C/c1ccccc1)NC(NC(=S)Nc1ccc(Cl)cc1Cl)C(Cl)(Cl)Cl (centres undefined) | inconclusive: 35.5 µM [inhibitor, single point] | 
59 | Cn1c(=O)c2c(nc(NCc3ccco3)n2C/C=C/c2ccccc2)n(C)c1=O | active: 10 µM | 
58 | O=C1NC(c2ccccc2)=C(c2nc3ccccc3s2)C(c2ccc(O)cc2)N1 (centres undefined) | inconclusive: 10 µM [inhibitor, single point] | 
51 | Nc1nc(SCC(=O)N2CCCc3ccccc32)[nH]c(=O)c1-c1ccccc1 | inconclusive: 3.16 µM [activator, single point] | 
60 | Cc1ccccc1OCC(=O)OCC(=O)c1ccc(OC(=O)c2ccccc2)cc1 | inactive | 
50 | O=c1cc(C(F)(F)F)nc(-n2[nH]c3c(c2=O)CCCC3)[nH]1 | inconclusive: 17.8 µM [inhibitor, single point] | 
52 | CC(=O)c1cccc(NC(=O)Nc2ccc(C(=O)N3CCCC3)cc2)c1 | inconclusive: 3.98 µM [inhibitor, partial curve] | 
66 | O=C(c1ccccc1)c1ccc(OCCn2cnc3ccccc3c2=O)cc1 | inconclusive: 2.51 µM [activator, single point] | 
67 | CC(=O)c1cc(NC(=O)c2ccc(C)cc2)c(=O)oc1C | inconclusive: 35.5 µM [inhibitor, single point] | 
68 | CN(C)/C=C/c1c(C#N)c(=O)ncn1Cc1ccccc1 | inactive | 
65 | COc1ccc(-c2noc(CSc3ccc(C)cc3)n2)cc1 | inconclusive: 35.5 µM [inhibitor, single point] | 
49 | COCCNC(=S)NC(=O)c1ccc(C(C)(C)C)cc1 | inconclusive: 12.6 µM [inhibitor, single point] | 
47 | COC(=O)C1=C(C)Nc2nnnn2C1c1cccs1 (centres undefined) | inconclusive: 17.8 µM [inhibitor, single point] | 
